Measured values published in US20200299341A1 (SOCIETE DE COMMERCIALISATION DES PRODUITS DE LA RECHERCHE …, published 2020).
Results are given in words; binding and its absence hold for the method and conditions named. Some entries that bind do so weakly or less than the wild type.

By UniProt entry, the sequences of proteins in these tests, tags left out. Where a name states a change or a piece, a line headed by the entry shows the natural chain unless it says otherwise.
UniProt Q05195: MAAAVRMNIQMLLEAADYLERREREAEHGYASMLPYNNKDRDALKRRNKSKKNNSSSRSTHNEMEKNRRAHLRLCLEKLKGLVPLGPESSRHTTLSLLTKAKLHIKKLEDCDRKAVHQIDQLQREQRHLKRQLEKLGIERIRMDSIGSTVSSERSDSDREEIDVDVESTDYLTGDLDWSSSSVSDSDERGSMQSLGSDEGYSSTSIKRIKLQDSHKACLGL

Biological target: Mad1*DN (Mad1 b-HLH-LZ domain with C75S, C111S, D112N and C-terminal GSGC extension) (human) (UniProt Q05195)
Assay: CD thermal denaturation at 222 nm, 16 uM, homodimer

B1: Mad1*DN (Mad1 b-HLH-LZ domain with C75S, C111S, D112N and C-terminal GSGC extension) (protein)
chain: SRSTHNEMEKNRRAHLRLSLEKLKGLVPLGPESSRHTTLSLLTKAKLHIKKLEDSNRKAVHQIDQLQREQRHLKRQLEKLGSGC
In the case of B1, the binding is reported as “binds”.
